The whole screen tested about 6,900 compounds, of which fewer than 10 were called active. The call rests on the fitted dose curve; in most records, active means well fitted curve in the direction sought with a large enough effect; inconclusive means small, poorly fitted or top-dose-only effect, or another doubt; inactive means no such curve, though single readings can be large or run the other way. This is one part of the list.
Biological target: Metallo-beta-lactamase type 2 (Klebsiella pneumoniae) (UniProt C7C422)
Assay: qHTS to identify inhibitors of the New Delhi Metallo-beta-lactamase (NDM): primary screen against the NCATS Gemini Collection; further: % of control where 0% means no effect
Details: NDM-1 enzyme, meropenem hydrolysis, absorbance 300 nm; at 38.4 µM (top of the series) unless noted
In short: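 NDM-1 at 2 nM final in 50 mM HEPES pH 7.0, 1 uM ZnSO4, 0.01% Tween20, preincubated >30 min with compound. Meropenem 50 uM final added; absorbance at 300 nm after 30 min.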

Sequences of proteins named here, by UniProt entry; tags and fusion partners are left off. A change or cut given only in a name is not applied to a line headed by its entry.
UniProt C7C422: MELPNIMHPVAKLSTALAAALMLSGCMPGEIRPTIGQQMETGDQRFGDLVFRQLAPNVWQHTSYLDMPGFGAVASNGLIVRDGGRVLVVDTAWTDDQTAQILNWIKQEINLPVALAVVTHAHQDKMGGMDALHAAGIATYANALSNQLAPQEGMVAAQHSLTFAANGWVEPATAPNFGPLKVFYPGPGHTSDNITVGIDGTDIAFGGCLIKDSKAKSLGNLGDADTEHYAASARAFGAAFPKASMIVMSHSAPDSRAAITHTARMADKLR

Activity % (negative = inhibition), inactive:
NC(=O)c1nnn([C@H]2CCN3C(=O)[C@@H](Cc4ccccc4)NC(=O)[C@@H]3C2)c1C(N)=O -0.053% [at 57.5 µM]
CCCCN1CCN(C(=O)c2cn3ccnc(-c4ccccc4)c3n2)CC1 35.2%
COCC1CN(C)CC12CCN(C1CCOCC1)CC2 (stereo not given) -3.49%
COc1ccccc1OC1(C(=O)O)CCN(C(=O)CC2CC2)CC1 0.0855%
CC(C)CCN1CCC(N2CCN(C(=O)c3ccc(Br)o3)CC2)C1=O (stereo not given) 57%
CN(C)C(=O)N1CCC(c2nc(C3CCOC3)n[nH]2)CC1 (stereo not given) 10.2%
COc1cccc(CN2CCCC(c3nc(-c4cccnc4)no3)CCNC(=O)CC2)n1 (stereo not given) -0.832%
CCc1noc([C@@H]2CC(F)(F)CN2C(=O)Cc2cccnc2)n1 4.57%
O=C(O)CCc1conc1-c1ccc(F)cc1 1.88%
O=C1CO[C@H]2CN(c3ncccn3)C[C@H]2N1CC1CCCCC1 53.2% [at 57.5 µM]
CN(C)c1ccc(C(=O)N[C@H]2C[C@H]3C(=O)NC[C@@H](CCC(=O)N4CCc5ccccc54)N3C2)cc1 16.9%
CCc1nc2c(=O)n(CC(=O)N3CCN(c4cccc(C)c4C)CC3)nc(C)c2s1 7.54%
O=S(=O)(NCC1Cn2cccc2CN1Cc1ccccc1)c1ccccc1 (stereo not given) 6.91%
CN1[C@@H](CCC(=O)NCc2ccco2)CNC(=O)[C@@H]2[C@H]1CCN2Cc1nc2ccccc2n1C 22.9%
CN(Cc1ccccc1)C(=O)[C@H]1O[C@H](CCN2CCOCC2)CC[C@@H]1O -0.861% [at 57.5 µM]
COc1ccccc1N1CCN(C(=O)CCc2conc2-c2cccc(F)c2)CC1 12.3%
CCNC(=O)N1CCCCCCNC(=O)[C@@H]2C[C@@H](c3nc(Cc4ccccc4)no3)C[C@@H]21 9.43%
CNC(=O)C1(N2CCC[C@H]2C(=O)N2CC[C@@H](O)C2)CCCCC1 -3.69% [at 57.5 µM]
CCCn1cc(-c2ccncc2)cc1C(=O)NCc1ccc(C)o1 33.3%
Cc1ccc(CN2CCCOCCNC(=O)[C@@H]3CCCC[C@@H]32)o1 -0.322%
CN1CCCCCCN(C(=O)c2ccc3ccccc3n2)[C@H]2CCC[C@H]2C1=O 2.88%
Cc1nn2c(c1-c1ccccc1OCc1ccccc1)N(C(=O)Cc1ccccc1)CCC2 -3.18% [at 57.5 µM]
CC(C)CC(=O)N1CCCC(Cc2nc(C3CCOCC3)no2)C1 (stereo not given) -3.12%
CNC(=O)[C@H]1C[C@H](Oc2ccccc2)CN1Cc1cn(C)c2ccc(OC)cc12 -3.36%
CCN1CCC2(CCC1=O)CN(Cc1cscn1)CCN2C (stereo not given) 2.24%
O=C(NC1CCCCC1)N1CCc2n[nH]c(=O)n2CC1 -1.02%
C=CCS(=O)(=O)N1CCC2(CCCN(CCCc3ccccc3)C2=O)C1 (stereo not given) -6.48%
COC[C@H]1CCCN1[C@@H]1[C@H](O)[C@H](CO)O[C@@H]1CNCc1ccc(F)cc1 9.85% [at 57.5 µM]
Cc1nc(N(C)C2CCCCC2)ncc1C(C)NC(=O)C1(CO)CC1 (stereo not given) 1.76%
CNC(=O)[C@@H]1CN(Cc2ccncc2)C[C@H]1COC -1.4%
CC(C)c1nccn1CCCNC(=O)c1ccc(-c2cccnc2)nc1 0.34%
CCCNC(=O)N[C@@H]1C[C@H](COc2cccc(C)n2)[C@@H](O)[C@H]1O 8.42% [at 57.5 µM]
CNC(=O)c1cc(C)nc2onc(C3CCCN([S+](=O)([O-])c4ccc(C)cc4)C3)c12 (stereo not given) 2.21%
Cc1nccn1CC(=O)N1CCCn2cc(-c3cccc(C#N)c3)nc21 3.64%
CC[C@H]1CN(C(=O)c2ccnc(Cl)c2)CC[C@H]1CC(=O)N1CCC(C(N)=O)CC1 24.3% [at 57.5 µM]
Cc1csc2c(NCCC3CN(c4cnn(C)c(=O)c4)CCO3)ncnc12 (stereo not given) 30.3%
O=S(=O)(Cc1ccccc1)N1CCC(n2cnnc2C2CC2)CC1 -3.91%
O=S(=O)(N[C@H]1[C@H](O)[C@H](O)C[C@@H]1c1ccc(C(F)(F)F)nc1)c1ccc(Cl)cc1 33.7%
Cc1cc(CN2CCC3(CC2)CN(C2CCC2)CC3CO)n(C)n1 (stereo not given) -7.47%
CCOCCCNC(=O)c1c(C)noc1-c1ccc(OC(F)(F)F)cc1 23.1%
CN(Cc1cc(C2CC2)on1)Cc1nnc(C2CC(N)C2)n1C1CC1 (stereo not given) 0.335%
Cc1nc(CCNC(=O)c2cnc(-c3cccnc3)nc2)cc(=O)[nH]1 27.1%
O=C(CCC1CCCC1)N1CCCC1c1nc(CCOCC2CC2)no1 (stereo not given) -3.06%
O=C(N1CC(Oc2ccc(-c3noc(-c4ccccc4)n3)cc2)C1)C1(c2ccccc2)CC1 -1.27%
CN(CC1CCOC1)C(=O)Cc1ccccc1 (stereo not given) -1.49%
CC(C)(C)C(=O)Nc1nc2c(s1)C[C@@H]1[C@](C)(CO)[C@H](O)CC[C@@]1(C)[C@@H]2CC(=O)O 10.8% [at 57.5 µM]
O=C(NCc1ccncc1)c1nc2c(o1)CCN(CCCc1ccccc1)CC2 1.72% [at 57.5 µM]
COc1cc(Cl)ccc1C(=O)N1CC[C@@H]2CN(S(C)(=O)=O)[C@@H]2C1 -6.52%
C[C@@]1(O)CCN(C2CCN(c3ccc(F)cc3)CC2)C[C@@H]1O 2.75%
COc1cccc(CN2CCC3(CC2)C(C(=O)O)CC(=O)N3C)c1OC (stereo not given) 17.9%
CCS(=O)(=O)N1C[C@@H](C(=O)NCc2ccc(C)o2)[C@H](c2ccncc2)C1 13.5%
CCOC(=O)[C@@H]1[C@H]2c3ccccc3N(CCOC)C(=O)[C@H]2N(C(=O)c2ccccc2)[C@@H]1c1ccccc1 9.89%
COc1cccc(CN2CCc3nn(Cc4ccccc4)c(=O)n3CC2)n1 2.87%
CC(C)C(=O)N1CCn2c(nnc2C2CCN(Cc3cc(Cl)ccc3F)C2)C1 (stereo not given) 8.75%
CN(C)C[C@@H]1CN(Cc2ccncc2)C[C@H]1NC(=O)Cc1ccsc1 -3%
c1ccc(CN(Cc2nc(-c3ccccn3)no2)CC2CC2)cc1 -0.609%
COC(=O)N(C)Cc1cccc(C(F)(F)F)c1 6.8% [at 57.5 µM]
O=C(c1ccc(Cl)s1)N1CCC2(COc3ncccc3S(=O)(=O)N2)C1 (stereo not given) 0.515%
CN(C)C(=O)c1nc(-c2cccc(C(F)(F)F)c2)c2cnccn12 -4.53% [at 57.5 µM]
Cc1ccc(NC(=O)N2CCCC(c3nnc(CN(C)C)n3C)C2)cc1C (stereo not given) 4.57%
COc1ccc(OC)c([C@@H]2C[C@H](NC(C)=O)C[C@H](Cc3ccccc3)O2)c1 -2.32%
CCn1ccnc1CN(C)C(=O)c1ccc2oc(-c3ccc(C(F)(F)F)cc3)nc2c1 3.07%
CC(C)N(C(=O)c1ccccc1-c1cc(NC2CC2)nc(N)n1)C(C)C 18.4%
Cn1ncc2c(N3CCN(S(N)(=O)=O)CC3)nc(C3CCCC3)nc21 14.1%
COC(=O)CCNC(=O)C1CN(S(=O)(=O)c2cccs2)CC12CCCCC2 (stereo not given) -0.861%
COc1cc(OC(F)(F)F)ccc1C(=O)N1CCC(C)(C(=O)O)CC1 -12.9%
CC(C)CN(C1CCN(C)CC1)C1CN(C(=O)c2cccs2)C1 47.2%
Cc1noc(C)c1S(=O)(=O)NCCc1noc(-c2ccccc2)n1 37.7%
O=C(Nc1ccc(F)cc1)N[C@H]1[C@H](O)[C@@H](N2CCOCC2)[C@@H]2OC[C@H]1O2 17% [at 57.5 µM]
CNC(=O)[C@@H]1CN(C(=O)c2n[nH]c3ccccc23)C[C@H]1COC 22.7%
CC(C)n1cnnc1CC1CCN(S(=O)(=O)Cc2ccccc2)C1 (stereo not given) 0.162%
CNC(=O)c1cc[nH]c1C1CCCN(C(=O)CCc2nc3ccccc3s2)C1 (stereo not given) 0.27%
COc1cccc(CN2Cc3cc(NS(=O)(=O)c4ccccc4)ccc3OCC2=O)c1OC 7.04%
CCS(=O)(=O)N1CCC2(CCC2OC)CC1 (stereo not given) 27.6%
Cc1noc(-c2cccs2)c1C(=O)NCc1ccco1 9.29%
O=C1CCN(C(=O)CCCc2ccccc2)CCCC(CO)CCN1 (stereo not given) 23.5%
Cc1ccc(C#N)c(N2CCN(C3CCCC3)C(CCO)C2)n1 (stereo not given) -2.55%
CC(=O)N1CC[C@]2(O)CCN(C(=O)CCCc3ccc(F)cc3)C[C@@H]2C1 -2.63%
COCCNc1nc(C)nc2c1CCN(C(=O)c1ccoc1)CC2 5.77%
CCCc1cnc(C)nc1N1CC[C@@H](NC(=O)c2cnccn2)[C@H](O)C1 5.84%
CN(Cc1ccccc1)c1ccc(C(=O)N2CCC(CN3CCCC3=O)CC2)cn1 20.2%
COc1ccc(NC(=O)Nc2cnc3c(c2)CCC3)cc1 3.07%
COCc1nc(CCNC(=O)C2CC2)no1 -2.25%
COCCN1CC2(CCCN(Cc3cc(C(C)(C)C)n[nH]3)C2)CCC1=O (stereo not given) -1.45%
C[C@@H]1CN(C(=O)c2ccc(-c3ccn[nH]3)cc2)CC[C@@]1(O)C1CCOCC1 2.84%

Structural class: those above containing a COOH group (5)
Activity % (negative = inhibition), inactive:
COc1ccccc1OC1(C(=O)O)CCN(C(=O)CC2CC2)CC1 0.0855%
O=C(O)CCc1conc1-c1ccc(F)cc1 1.88%
CC(C)(C)C(=O)Nc1nc2c(s1)C[C@@H]1[C@](C)(CO)[C@H](O)CC[C@@]1(C)[C@@H]2CC(=O)O 10.8% [at 57.5 µM]
COc1cccc(CN2CCC3(CC2)C(C(=O)O)CC(=O)N3C)c1OC (stereo not given) 17.9%
COc1cc(OC(F)(F)F)ccc1C(=O)N1CCC(C)(C(=O)O)CC1 -12.9%
